Experimental data as given in article PMC8586358 (Nature Communications, 2021).

Test system: TH+ structures in the Islands of Calleja
Experiment: Nanoscale distribution of Fluo-CAR LPs relative to TH-immunopositive dopaminergic varicosities

## CN(CCCNC(=O)CCCCC[N+]1=C(/C=C/C=C/C=C2/N(C)c3ccc(S(=O)(=O)O)cc3C2(C)C)C(C)(C)c2cc(S(=O)(=O)[O-])ccc21)C(=O)N[C@H]1CC[C@@H](CCN2CCN(c3cccc(Cl)c3Cl)CC2)CC1 [fluo-cariprazine]
300 nM on acute slices (Fig. 4d), n = 12
  Fluo-CAR STORM density on TH+ structures (norm.to average), actual median: 0,1375
Fig. 5e, n = 12 frames
  Fluo-CAR STORM density on TH+ structures (norm.to average), actual median: 0,0
